Reference: PMC9675736
These are yes or no findings as the source states them, for the method shown. Binding seen in cells or lysates may run through a third protein. A yes stands for co-enrichment or nearness to the bait. Other partners may have been found.

Sequences of proteins named here, by UniProt entry; tags and fusion partners are left off.
UniProt P62137: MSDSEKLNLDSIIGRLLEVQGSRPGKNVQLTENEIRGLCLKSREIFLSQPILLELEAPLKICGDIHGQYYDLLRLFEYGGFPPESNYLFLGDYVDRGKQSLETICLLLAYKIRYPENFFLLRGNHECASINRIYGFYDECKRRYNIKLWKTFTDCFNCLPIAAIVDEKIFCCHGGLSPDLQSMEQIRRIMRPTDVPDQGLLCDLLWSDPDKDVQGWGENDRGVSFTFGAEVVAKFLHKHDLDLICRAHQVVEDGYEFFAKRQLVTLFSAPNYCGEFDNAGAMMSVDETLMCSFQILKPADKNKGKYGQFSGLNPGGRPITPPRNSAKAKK

Target: T1, platelet endothelial aggregation receptor 1 (PEAR1), mouse (mouse (endogenous in cultured mouse pulmonary fibroblasts)) (UniProt Q8VIK5)
T1 sequence: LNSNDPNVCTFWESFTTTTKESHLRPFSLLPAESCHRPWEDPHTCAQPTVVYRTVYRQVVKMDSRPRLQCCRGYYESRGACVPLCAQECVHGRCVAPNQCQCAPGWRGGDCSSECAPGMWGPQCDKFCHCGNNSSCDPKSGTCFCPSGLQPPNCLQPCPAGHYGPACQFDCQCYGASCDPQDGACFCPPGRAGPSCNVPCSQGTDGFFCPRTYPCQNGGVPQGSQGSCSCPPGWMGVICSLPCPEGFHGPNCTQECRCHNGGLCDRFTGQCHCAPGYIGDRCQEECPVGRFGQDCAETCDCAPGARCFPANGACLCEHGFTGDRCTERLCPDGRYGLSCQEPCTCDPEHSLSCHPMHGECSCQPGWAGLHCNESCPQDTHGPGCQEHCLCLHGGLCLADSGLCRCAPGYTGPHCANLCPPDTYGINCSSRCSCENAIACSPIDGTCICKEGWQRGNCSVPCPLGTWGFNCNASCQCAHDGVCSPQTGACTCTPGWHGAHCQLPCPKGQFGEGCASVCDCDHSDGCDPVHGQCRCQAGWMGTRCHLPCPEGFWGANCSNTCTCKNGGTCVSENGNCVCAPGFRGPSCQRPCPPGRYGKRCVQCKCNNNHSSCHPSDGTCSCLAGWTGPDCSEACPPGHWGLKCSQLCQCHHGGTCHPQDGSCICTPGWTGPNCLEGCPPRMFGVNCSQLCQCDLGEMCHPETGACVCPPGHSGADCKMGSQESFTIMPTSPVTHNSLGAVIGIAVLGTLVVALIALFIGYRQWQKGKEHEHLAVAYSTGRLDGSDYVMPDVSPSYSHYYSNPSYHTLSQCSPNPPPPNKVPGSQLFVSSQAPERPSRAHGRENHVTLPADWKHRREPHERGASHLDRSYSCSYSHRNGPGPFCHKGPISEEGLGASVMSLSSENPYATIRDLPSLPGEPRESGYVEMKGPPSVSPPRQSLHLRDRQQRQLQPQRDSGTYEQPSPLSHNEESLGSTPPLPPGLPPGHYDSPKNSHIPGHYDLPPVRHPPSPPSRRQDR
Experiment: affinity purification with mass spectrometry; immunoprecipitation of mouse fibroblast lysate with PEAR1 antibody, protein mass spectrometry

With “protein phosphatase 1 catalytic subunit alpha (PP1α), mouse (from UniProt P62137 1-330) (enzyme)” the binding was “binds”.
